According to PMC12608094, “STN1 Shields CTC1 From TRIM32‐Mediated Ubiquitination to Prevent Cellular Aging” (Aging Cell, 2025):
These are yes or no findings as the source states them, for the method shown. In cells and extracts the contact can be indirect. Some binding calls cover weakened binding; strength is not graded here. Tags and fused reporters may be left off the sequences shown.

Chains of the proteins cited; added tags and fusions are not shown.
UniProt Q13049: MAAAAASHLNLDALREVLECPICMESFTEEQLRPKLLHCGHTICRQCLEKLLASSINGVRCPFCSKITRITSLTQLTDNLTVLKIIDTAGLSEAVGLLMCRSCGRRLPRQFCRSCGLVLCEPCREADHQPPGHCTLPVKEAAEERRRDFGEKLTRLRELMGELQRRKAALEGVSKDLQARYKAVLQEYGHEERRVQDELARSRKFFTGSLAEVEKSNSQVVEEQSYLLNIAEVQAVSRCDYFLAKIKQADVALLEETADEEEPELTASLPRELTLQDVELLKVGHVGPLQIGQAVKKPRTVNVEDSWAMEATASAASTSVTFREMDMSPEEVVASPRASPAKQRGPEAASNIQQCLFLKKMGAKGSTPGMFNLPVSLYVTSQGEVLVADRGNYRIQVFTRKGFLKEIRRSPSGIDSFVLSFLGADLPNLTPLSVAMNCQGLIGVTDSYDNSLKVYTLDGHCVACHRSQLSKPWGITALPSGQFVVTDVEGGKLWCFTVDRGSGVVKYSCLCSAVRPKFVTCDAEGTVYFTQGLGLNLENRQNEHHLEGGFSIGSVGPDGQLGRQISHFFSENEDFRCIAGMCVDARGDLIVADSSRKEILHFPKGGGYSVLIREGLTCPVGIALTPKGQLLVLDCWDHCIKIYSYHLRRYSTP

How the values were obtained:
[1] = target: GST-tagged TRIM32 expressed in HEK293T cells (human) (UniProt Q13049); experiment: pull-down; GST pull-down from HEK293T cell lysates with Glutathione-sepharose beads; GST-TRIM32 with WT or 1196Δ7 Flag-CTC1, with or without HA-STN1
[2] = target: GST-tagged TRIM32 from E. coli (human) (UniProt Q13049); experiment: pull-down; GST-TRIM32 from E. coli held on Glutathione-sepharose beads, washed, added to lysate of Sf9 cells expressing Flag-CTC1, 4 h at 4°C; Western blot; only the target purified

binding [1]	binding [2]	Binder
binds	–	Flag-tagged CTC1 (wild type) (protein, UniProt Q2NKJ3 1-1217) MAAGRAQVPSSEQAWLEDAQVFIQKTLCPAVKEPNVQLTPLVIDCVKTVWLSQGRNQGSTLPLSYSFVSVQDLKTHQRLPCCSHLSWSSSAYQAWAQEAGPNGNPLPREQLLLLGTLTDLSADLEQECRNGSLYVRDNTGVLSCELIDLDLSWLGHLFLFPRWSYLPPARWNSSGEGHLELWDAPVPVFPLTISPGPVTPIPVLYPESASCLLRLRNKLRGVQRNLAGSLVRLSALVKSKQKAYFILSLGRSHPAVTHVSIIVQVPAQLVWHRALRPGTAYVLTELRVSKIRGQRQHVWMTSQSSRLLLLKPECVQELELELEGPLLEADPKPLPMPSNSEDKKDPESLVRYSRLLSYSGAVTGVLNEPAGLYELDGQLGLCLAYQQFRGLRRVMRPGVCLQLQDVHLLQSVGGGTRRPVLAPCLRGAVLLQSFSRQKPGAHSSRQAYGASLYEQLVWERQLGLPLYLWATKALEELACKLCPHVLRHHQFLQHSSPGSPSLGLQLLAPTLDLLAPPGSPVRNAHNEILEEPHHCPLQKYTRLQTPSSFPTLATLKEEGQRKAWASFDPKALLPLPEASYLPSCQLNRRLAWSWLCLLPSAFCPAQVLLGVLVASSHKGCLQLRDQSGSLPCLLLAKHSQPLSDPRLIGCLVRAERFQLIVERDVRSSFPSWKELSMPGFIQKQQARVYVQFFLADALILPVPRPCLHSATPSTPQTDPTGPEGPHLGQSRLFLLCHKEALMKRNFCVPPGASPEVPKPALSFYVLGSWLGGTQRKEGTGWGLPEPQGNDDNDQKVHLIFFGSSVRWFEFLHPGQVYRLIAPGPATPMLFEKDGSSCISRRPLELAGCASCLTVQDNWTLELESSQDIQDVLDANKSLPESSLTDLLSDNFTDSLVSFSAEILSRTLCEPLVASLWMKLGNTGAMRRCVKLTVALETAECEFPPHLDVYIEDPHLPPSLGLLPGARVHFSQLEKRVSRSHNVYCCFRSSTYVQVLSFPPETTISIPLPHIYLAELLQGGQSPFQATASCHIVSVFSLQLFWVCAYCTSICRQGKCTRLGSTCPTQTAISQAIIRLLVEDGTAEAVVTCRNHHVAAALGLCPREWASLLDFVQVPGRVVLQFAGPGAQLESSARVDEPMTMFLWTLCTSPSVLRPIVLSFELERKPSKIVPLEPPRLQRFQCGELPFLTHVNPRLRLSCLSIRESEYSSSLGILASSC
–	binds	Flag-tagged CTC1 expressed in Sf9 cells (protein, UniProt Q2NKJ3 1-1217) MAAGRAQVPSSEQAWLEDAQVFIQKTLCPAVKEPNVQLTPLVIDCVKTVWLSQGRNQGSTLPLSYSFVSVQDLKTHQRLPCCSHLSWSSSAYQAWAQEAGPNGNPLPREQLLLLGTLTDLSADLEQECRNGSLYVRDNTGVLSCELIDLDLSWLGHLFLFPRWSYLPPARWNSSGEGHLELWDAPVPVFPLTISPGPVTPIPVLYPESASCLLRLRNKLRGVQRNLAGSLVRLSALVKSKQKAYFILSLGRSHPAVTHVSIIVQVPAQLVWHRALRPGTAYVLTELRVSKIRGQRQHVWMTSQSSRLLLLKPECVQELELELEGPLLEADPKPLPMPSNSEDKKDPESLVRYSRLLSYSGAVTGVLNEPAGLYELDGQLGLCLAYQQFRGLRRVMRPGVCLQLQDVHLLQSVGGGTRRPVLAPCLRGAVLLQSFSRQKPGAHSSRQAYGASLYEQLVWERQLGLPLYLWATKALEELACKLCPHVLRHHQFLQHSSPGSPSLGLQLLAPTLDLLAPPGSPVRNAHNEILEEPHHCPLQKYTRLQTPSSFPTLATLKEEGQRKAWASFDPKALLPLPEASYLPSCQLNRRLAWSWLCLLPSAFCPAQVLLGVLVASSHKGCLQLRDQSGSLPCLLLAKHSQPLSDPRLIGCLVRAERFQLIVERDVRSSFPSWKELSMPGFIQKQQARVYVQFFLADALILPVPRPCLHSATPSTPQTDPTGPEGPHLGQSRLFLLCHKEALMKRNFCVPPGASPEVPKPALSFYVLGSWLGGTQRKEGTGWGLPEPQGNDDNDQKVHLIFFGSSVRWFEFLHPGQVYRLIAPGPATPMLFEKDGSSCISRRPLELAGCASCLTVQDNWTLELESSQDIQDVLDANKSLPESSLTDLLSDNFTDSLVSFSAEILSRTLCEPLVASLWMKLGNTGAMRRCVKLTVALETAECEFPPHLDVYIEDPHLPPSLGLLPGARVHFSQLEKRVSRSHNVYCCFRSSTYVQVLSFPPETTISIPLPHIYLAELLQGGQSPFQATASCHIVSVFSLQLFWVCAYCTSICRQGKCTRLGSTCPTQTAISQAIIRLLVEDGTAEAVVTCRNHHVAAALGLCPREWASLLDFVQVPGRVVLQFAGPGAQLESSARVDEPMTMFLWTLCTSPSVLRPIVLSFELERKPSKIVPLEPPRLQRFQCGELPFLTHVNPRLRLSCLSIRESEYSSSLGILASSC
binds	–	Flag-tagged CTC1 1196Δ7 (protein, UniProt Q2NKJ3) MAAGRAQVPSSEQAWLEDAQVFIQKTLCPAVKEPNVQLTPLVIDCVKTVWLSQGRNQGSTLPLSYSFVSVQDLKTHQRLPCCSHLSWSSSAYQAWAQEAGPNGNPLPREQLLLLGTLTDLSADLEQECRNGSLYVRDNTGVLSCELIDLDLSWLGHLFLFPRWSYLPPARWNSSGEGHLELWDAPVPVFPLTISPGPVTPIPVLYPESASCLLRLRNKLRGVQRNLAGSLVRLSALVKSKQKAYFILSLGRSHPAVTHVSIIVQVPAQLVWHRALRPGTAYVLTELRVSKIRGQRQHVWMTSQSSRLLLLKPECVQELELELEGPLLEADPKPLPMPSNSEDKKDPESLVRYSRLLSYSGAVTGVLNEPAGLYELDGQLGLCLAYQQFRGLRRVMRPGVCLQLQDVHLLQSVGGGTRRPVLAPCLRGAVLLQSFSRQKPGAHSSRQAYGASLYEQLVWERQLGLPLYLWATKALEELACKLCPHVLRHHQFLQHSSPGSPSLGLQLLAPTLDLLAPPGSPVRNAHNEILEEPHHCPLQKYTRLQTPSSFPTLATLKEEGQRKAWASFDPKALLPLPEASYLPSCQLNRRLAWSWLCLLPSAFCPAQVLLGVLVASSHKGCLQLRDQSGSLPCLLLAKHSQPLSDPRLIGCLVRAERFQLIVERDVRSSFPSWKELSMPGFIQKQQARVYVQFFLADALILPVPRPCLHSATPSTPQTDPTGPEGPHLGQSRLFLLCHKEALMKRNFCVPPGASPEVPKPALSFYVLGSWLGGTQRKEGTGWGLPEPQGNDDNDQKVHLIFFGSSVRWFEFLHPGQVYRLIAPGPATPMLFEKDGSSCISRRPLELAGCASCLTVQDNWTLELESSQDIQDVLDANKSLPESSLTDLLSDNFTDSLVSFSAEILSRTLCEPLVASLWMKLGNTGAMRRCVKLTVALETAECEFPPHLDVYIEDPHLPPSLGLLPGARVHFSQLEKRVSRSHNVYCCFRSSTYVQVLSFPPETTISIPLPHIYLAELLQGGQSPFQATASCHIVSVFSLQLFWVCAYCTSICRQGKCTRLGSTCPTQTAISQAIIRLLVEDGTAEAVVTCRNHHVAAALGLCPREWASLLDFVQVPGRVVLQFAGPGAQLESSARVDEPMTMFLWTLCTSPSVLRPIVLSFELERKPSKIVPLEPPRLQRFQCGELPFLTHVNPRLRESEYSSSLGILASSC
